Reference: PubChem BioAssay AID330 (DTP/NCI, 2004)
The list does not hold the whole screen: it gathers tests that were run many times, whatever their T/C, doses with no T/C, and many T/C values between a quarter and a half above the control. Other doses and runs of a compound stand elsewhere. T/C is the treated group as % of the vehicle group. Some entries give survivors of the animals treated and no T/C: the source holds a T/C of zero for them, seemingly a mark for toxic or unscored doses. Some survivor counts are full or nearly so, which does not show that the dose was tolerated: the source hardly ever lists a survival T/C far under the control, and the zero likely stands for such cases as well. Survivors were counted at the toxicity check, usually on the fifth day, unless a day is given; later deaths do not show. Schedules are NCI's codes, read here as Q, the interval in days (D) or hours (H), X, the number of doses. Some entries hold several experiments; the results are listed from low to high. For survival time, this PubChem deposit counts one and a half times the control or more as active, and values a quarter to a half above the control carry no call in these data; other NCI protocols may use other cut-offs. Counts like (3×) stand for listed records that agree. Some T/C values carry the count of animals alive at the toxicity check (mostly the fifth day); without a count, all were alive then.

Test system: P388 leukemia ip, CD2F1 mice, survival T/C
Assay: NCI In Vivo Anticancer Drug Screen. Data for tumor model P388 Leukemia (intraperitoneal) in CD2F1 (CDF1) mice
Conditions: T/C endpoint: median survival time, higher T/C = longer survival
[1] = dose: 100.0 mg/kg/injection, schedule: Q01DX009 (ip), vehicle: saline

`COc1cc(OC)c(C(=O)/C=C/c2ccncc2)cc1C(=O)O` was tested, and the T/C (dose: 200.0 mg/kg/injection, schedule: Q01DX009 (ip), vehicle: suspension in saline) was 128 [5 of 6 alive] and 130 % of control and the T/C (dose: 400.0 mg/kg/injection, schedule: Q01DX009 (ip), vehicle: suspension in saline) was 129 % of control [4 of 6 alive].

For `[Cl][Pt+2][Cl].[NH-]C(c1ccccc1)C([NH-])c1ccccc1` (configuration not stated), the T/C (dose: 6.25 mg/kg/injection, schedule: Q04DX002 (ip), vehicle: saline with Tween-80) was 126 and 134 % of control, the T/C (dose: 12.5 mg/kg/injection, schedule: Q01DX001 (ip), vehicle: Klucel (hydroxypropylcellulose) (HPC)) was 125 % of control and the T/C (dose: 12.5 mg/kg/injection, schedule: Q04DX002 (ip), vehicle: saline with Tween-80) was 128 and 139 % of control. The T/C (dose: 25.0 mg/kg/injection, schedule: Q01DX001 (ip), vehicle: Klucel (hydroxypropylcellulose) (HPC)) was 131 % of control, the T/C (dose: 25.0 mg/kg/injection, schedule: Q04DX002 (ip), vehicle: saline with Tween-80) was 129 (2×), 142, 148 % of control and the T/C (dose: 50.0 mg/kg/injection, schedule: Q01DX001 (ip), vehicle: Klucel (hydroxypropylcellulose) (HPC)) was 138 % of control. The T/C (dose: 50.0 mg/kg/injection, schedule: Q04DX002 (ip), vehicle: saline with Tween-80) was 133 and 135 % of control.

With `CNC(C#N)C(O)c1ccccc1` (configuration not stated) the survivor count [1] was 2 of 6 and the survivor count (dose: 200.0 mg/kg/injection, schedule: Q01DX009 (ip), vehicle: saline) was 1 of 6.

With `C/C(=N\NC(=S)N1CCCCCC1)c1cccc(C)n1` the T/C (dose: 50.0 mg/kg/injection, schedule: Q01DX005 (ip), vehicle: saline with Tween-80) was 126 % of control, the survivor count (dose: 100.0 mg/kg/injection, schedule: Q01DX005 (ip), vehicle: saline with Tween-80) was 3 of 6 and 3 of 5 and the survivor count (dose: 200.0 mg/kg/injection, schedule: Q01DX005 (ip), vehicle: saline with Tween-80) was 0 of 6.

With `O=C1C(C(=Nc2cccc(Cl)c2)c2ccccc2)=C(O)c2ccccc21` the survivor count (dose: 100.0 mg/kg/injection, schedule: Q04DX002 (ip), vehicle: saline with Tween-80) was 6 of 6.

In the case of `CCN(C)N=Nc1cccnc1`, the T/C [1] is reported as 148 % of control.

For `CCCCOP(=O)(N1CC1(C)C)N1CC1(C)C` (configuration not stated), the T/C (dose: 8.0 mg/kg/injection, schedule: Q01DX009 (ip), vehicle: saline) was 144 % of control, the T/C (dose: 16.0 mg/kg/injection, schedule: Q01DX009 (ip), vehicle: saline) was 130 % of control and the T/C (dose: 20.0 mg/kg/injection, schedule: Q01DX001 (ip), vehicle: saline) was 126 % of control. For the same compound, the T/C (dose: 40.0 mg/kg/injection, schedule: Q01DX001 (ip), vehicle: saline) was 135 % of control and the T/C (dose: 80.0 mg/kg/injection, schedule: Q01DX001 (ip), vehicle: saline) was 128 % of control.

For `CCN(CC)CN1C(=O)C2C3C=CC(C2C1=O)C1C2C(=O)N(CN(CC)CC)C(=O)C2C31` (configuration not stated), the T/C (dose: 200.0 mg/kg/injection, schedule: Q01DX009 (ip), vehicle: saline with Tween-80) was 125 and 139 % of control.
